Results from paper PMC10786922.
No constants are given. Whether binding was seen depends on the method and setting. Binding seen in cells or lysates may run through a third protein.

Chains of the proteins cited; added tags and fusions are not shown.
UniProt Q08J23: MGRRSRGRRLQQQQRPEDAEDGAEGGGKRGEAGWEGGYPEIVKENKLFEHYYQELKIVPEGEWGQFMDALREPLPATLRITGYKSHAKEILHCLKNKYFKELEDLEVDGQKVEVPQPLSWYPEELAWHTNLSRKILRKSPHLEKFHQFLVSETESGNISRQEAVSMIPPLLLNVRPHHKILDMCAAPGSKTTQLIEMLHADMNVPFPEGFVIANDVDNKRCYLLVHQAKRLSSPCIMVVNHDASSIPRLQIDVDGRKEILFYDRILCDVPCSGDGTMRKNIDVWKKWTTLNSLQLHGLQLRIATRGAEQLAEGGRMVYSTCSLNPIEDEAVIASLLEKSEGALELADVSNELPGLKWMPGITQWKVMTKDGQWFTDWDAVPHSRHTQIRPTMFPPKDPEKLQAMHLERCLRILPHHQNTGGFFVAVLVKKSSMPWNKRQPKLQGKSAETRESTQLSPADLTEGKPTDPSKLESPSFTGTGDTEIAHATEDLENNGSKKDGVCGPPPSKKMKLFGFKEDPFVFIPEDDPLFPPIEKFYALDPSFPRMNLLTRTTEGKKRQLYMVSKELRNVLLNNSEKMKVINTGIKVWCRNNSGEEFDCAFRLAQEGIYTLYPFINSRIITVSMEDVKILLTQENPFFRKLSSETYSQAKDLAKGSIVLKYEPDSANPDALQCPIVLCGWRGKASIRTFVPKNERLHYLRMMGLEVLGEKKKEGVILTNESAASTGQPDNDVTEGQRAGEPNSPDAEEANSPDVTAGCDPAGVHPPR
UniProt P03165: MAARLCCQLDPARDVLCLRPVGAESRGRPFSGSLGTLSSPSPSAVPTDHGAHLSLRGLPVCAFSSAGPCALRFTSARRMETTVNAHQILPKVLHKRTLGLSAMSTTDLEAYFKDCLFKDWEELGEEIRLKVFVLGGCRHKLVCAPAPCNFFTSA

Target: Flag-NSUN2 (NOP2/Sun RNA methyltransferase 2) (UniProt Q08J23)
Assay: co-IP; Huh7 cells co-transfected with HA-HBx and Flag-NSUN2, 48 h post-transfection; IP with anti-Flag, HBx blotted with anti-HA; IP buffer 50 mmol/L Tris-HCl pH 7.5, 1% Triton X-100, 150 mmol/L NaCl

## HA-HBx (hepatitis B virus X protein) (from UniProt P03165 1-154)
  binding: no binding
